The source of these data is doi:10.1101/2025.03.15.643466.

The chains behind the UniProt entries cited, without tags or fusion partners.
UniProt P49841: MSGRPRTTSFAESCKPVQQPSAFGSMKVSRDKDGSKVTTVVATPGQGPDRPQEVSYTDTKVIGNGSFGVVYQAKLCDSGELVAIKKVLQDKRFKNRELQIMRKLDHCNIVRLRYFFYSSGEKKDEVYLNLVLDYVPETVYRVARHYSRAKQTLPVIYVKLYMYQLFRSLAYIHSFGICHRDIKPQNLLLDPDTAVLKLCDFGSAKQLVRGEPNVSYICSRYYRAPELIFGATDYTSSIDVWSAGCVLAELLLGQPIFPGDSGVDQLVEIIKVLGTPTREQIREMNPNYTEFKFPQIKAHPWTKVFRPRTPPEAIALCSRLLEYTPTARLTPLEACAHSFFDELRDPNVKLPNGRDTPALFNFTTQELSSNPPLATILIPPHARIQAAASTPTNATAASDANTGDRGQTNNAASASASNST

This experiment has as its target FLAG-tagged FTO (UniProt Q9C0B1). The experiment can be described thus: co-IP.

These are yes or no findings as the source states them, for the method shown. Binding seen in cells or lysates may run through a third protein. Some entries that bind do so weakly or less than the wild type.

For “GSK3β (from UniProt P49841 1-420) (enzyme)”, the binding entry is “binds”.
